These results are taken from PubChem BioAssay AID248 (DTP/NCI, 2004).

SMILES strings stand for the structures. The list is a part of this screen's results and no random one: it gathers tests that were run many times, whatever their T/C, doses with no T/C, and many T/C values between a quarter and a half above the control. Other doses and runs of a compound stand elsewhere. T/C: endpoint of the treated group in % of that of the vehicle group. Some doses have a count of surviving animals in place of a T/C: the source holds a T/C of zero for them, seemingly a mark for toxic or unscored doses. Some doses without a T/C left all or most animals alive at the check, yet need not have been tolerated: the source hardly ever lists a survival T/C far under the control, and the zero likely stands for such cases as well. Counts of survivors are from the toxicity check (mostly the fifth day) where no day follows; animals may have died later. Schedules are NCI's codes, read here as Q, the interval in days (D) or hours (H), X, the number of doses. Marks such as (2×) say how often a value occurs here. Some doses were run more than once; the values are given in rising order. Some schedules carry Z or #; the key to these is not given. For survival time, this PubChem deposit counts one and a half times the control or more as active, and values a quarter to a half above the control carry no call in these data; other NCI protocols may use other cut-offs.

For this assay, the system named is L1210 leukemia ip in BDF1 mice, survival T/C. The experiment in a line: NCI In Vivo Anticancer Drug Screen. Data for tumor model L1210 Leukemia (intraperitoneal) in B6D2F1 (BDF1) mice. Conditions: T/C endpoint: mean survival time, higher T/C = longer survival.
[1] abbreviates: dose: 100.0 mg/kg/injection, schedule: Q04DX003 (ip), vehicle: Klucel (hydroxypropylcellulose) (HPC).
Setting [2] is: dose: 200.0 mg/kg/injection, schedule: Q04DX003 (ip), vehicle: Klucel (hydroxypropylcellulose) (HPC).
Where [3] appears, read: dose: 400.0 mg/kg/injection, schedule: Q04DX003 (ip), vehicle: Klucel (hydroxypropylcellulose) (HPC).
Where [4] appears, read: dose: 400.0 mg/kg/injection, schedule: Q01DX001 (ip), vehicle: saline.
The mark [5] stands for this setting: dose: 200.0 mg/kg/injection, schedule: Q01DX001 (ip), vehicle: carboxymethylcellulose (CMC).
Where [6] appears, read: dose: 400.0 mg/kg/injection, schedule: Q01DX001 (ip), vehicle: carboxymethylcellulose (CMC).

In the case of `O=C/C(Br)=C(\Br)C(=O)O`, the survivor count is 3 of 3 (dose: 12.5 mg/kg/injection, schedule: Q01DX009 (ip), vehicle: carboxymethylcellulose (CMC)); 3 of 3 (dose: 12.5 mg/kg/injection, schedule: Q04DX002 (ip), vehicle: carboxymethylcellulose (CMC)); 3 of 3 (dose: 50.0 mg/kg/injection, schedule: Q01DX009 (ip), vehicle: carboxymethylcellulose (CMC)); 3 of 6 (dose: 50.0 mg/kg/injection, schedule: Q04DX002 (ip), vehicle: carboxymethylcellulose (CMC)); 0 of 6 (dose: 50.0 mg/kg/injection, schedule: Q04DX003 (ip), vehicle: carboxymethylcellulose (CMC)); 0 of 3 and 1 of 6 (dose: 100.0 mg/kg/injection, schedule: Q04DX002 (ip), vehicle: carboxymethylcellulose (CMC)). Further, the survivor count runs as follows: (dose: 200.0 mg/kg/injection, schedule: Q04DX002 (ip), vehicle: carboxymethylcellulose (CMC)) 0 of 3 and 1 of 6; (dose: 400.0 mg/kg/injection, schedule: Q04DX002 (ip), vehicle: carboxymethylcellulose (CMC)) 0 of 3 and 0 of 6.
For `C=C1C(=O)OC2C1CCC(=C)C1CC(O)C(=C)C12` (stereo not drawn), the survivor count was 0 of 6 (dose: 150.0 mg/kg/injection, schedule: Q01DX009 (ip), vehicle: saline with Tween-80) and 0 of 6 (dose: 225.0 mg/kg/injection, schedule: Q01DX009 (ip), vehicle: saline with Tween-80).
Turning to `CC(=O)OCC1CCC(NC(=O)N(CCCl)N=O)CC1` (stereo not drawn), the T/C (dose: 60.0 mg/kg/injection, schedule: Q01DX001 (ip), vehicle: Klucel (hydroxypropylcellulose) (HPC)) is 133 % of control. The survivor count runs as follows: (dose: 90.0 mg/kg/injection, schedule: Q01DX001 (ip), vehicle: Klucel (hydroxypropylcellulose) (HPC)) 10 of 10; (dose: 134.0 mg/kg/injection, schedule: Q01DX001 (ip), vehicle: Klucel (hydroxypropylcellulose) (HPC)) 10 of 10; (dose: 200.0 mg/kg/injection, schedule: Q01DX001 (ip), vehicle: Klucel (hydroxypropylcellulose) (HPC)) 10 of 10; (dose: 300.0 mg/kg/injection, schedule: Q01DX001 (ip), vehicle: Klucel (hydroxypropylcellulose) (HPC)) 2 of 10.
For the molecule `Cc1c(C)c(N)c(C)c(C)c1N`, the survivor count reads like this: (dose: 25.0 mg/kg/injection, schedule: Q01DX009 (ip), vehicle: Klucel (hydroxypropylcellulose) (HPC)) 0 of 6; (dose: 25.0 mg/kg/injection, schedule: Q04DX003 (ip), vehicle: Klucel (hydroxypropylcellulose) (HPC)) 0 of 6; (dose: 50.0 mg/kg/injection, schedule: Q04DX003 (ip), vehicle: Klucel (hydroxypropylcellulose) (HPC)) 0 of 6; under setting [1], 0 of 6; under setting [2], 0 of 6; under setting [3], 0 of 6.
Turning to `COc1ccc(NCC(O)CN2CCCC2)cc1` (stereo not drawn), under setting [4], the survivor count is 3 of 6.
In the case of `Cc1ccc(N=Cc2ccc([N+](=O)[O-])s2)cc1Cl`, under setting [3], the survivor count is 6 of 6.
`C=CCOCC(O)C[As](=O)(O)c1ccc(Cl)cc1` (stereo not drawn): the survivor count by setting is: (dose: 25.0 mg/kg/injection, schedule: Q04DX003 (ip), vehicle: saline with Tween-80) 0 of 6; (dose: 50.0 mg/kg/injection, schedule: Q04DX003 (ip), vehicle: saline with Tween-80) 0 of 6; (dose: 100.0 mg/kg/injection, schedule: Q04DX003 (ip), vehicle: saline with Tween-80) 0 of 6 (2×); (dose: 200.0 mg/kg/injection, schedule: Q04DX003 (ip), vehicle: saline with Tween-80) 0 of 6; (dose: 400.0 mg/kg/injection, schedule: Q04DX003 (ip), vehicle: saline with Tween-80) 0 of 6.
As for `O=C1C2=C(C(=O)c3ccccc31)C1C=CC2CC1`, the survivor count is, setting by setting: under setting [5], 1 of 4; under setting [6], 0 of 4.
Regarding `CN(Cc1cnc2nc(N)nc(N)c2n1)c1cc(Cl)c(C(=O)NC(CCC(=O)O)C(=O)O)cc1Cl` (stereo not drawn), the T/C is 132 % of control (dose: 25.0 mg/kg/injection, schedule: Q01DX009 (ip), vehicle: sodium bicarbonate) and 144 % of control (dose: 50.0 mg/kg/injection, schedule: Q01DX009 (ip), vehicle: sodium bicarbonate).
In the case of `CNS(=O)(=O)c1ccccc1CC(O)(c1ccccc1)c1ccccc1`, under “dose: 400.0 mg/kg/injection, schedule: Q01DX001 (ip), vehicle: steroid suspending solution”, the survivor count was 6 of 6.
On to `O=NN(CCCl)C(=O)NCCc1cccc[n+]1[O-]`, for which the T/C (dose: 50.0 mg/kg/injection, schedule: Q01DX001 (ip), vehicle: water) was 128 % of control. Moreover, the survivor count (dose: 100.0 mg/kg/injection, schedule: Q01DX001 (ip), vehicle: water) is recorded as 6 of 6.
With `CS(=O)(=O)OCCN(CCOS(C)(=O)=O)c1ccc(C=Nc2ccc(-c3csc(Cc4ccccc4)n3)cc2)cc1`, the T/C is 141 % of control (dose: 45.0 mg/kg/injection, schedule: Q04DX003 (ip), vehicle: Klucel (hydroxypropylcellulose) (HPC)); 132 and 148 % of control under setting [1]. Besides, the survivor count is, setting by setting: under setting [2], 6 of 6; under setting [3], 3 of 6.
Take `c1ccc2c(C3=NCCN3)ccc(C3=NCCN3)c2c1`: the survivor count is listed as 1 of 6 (dose: 60.0 mg/kg/injection, schedule: Q01DX Z (ip), vehicle: saline) and 0 of 6 (dose: 120.0 mg/kg/injection, schedule: Q01DX Z (ip), vehicle: saline).
With `COc1ccc(CN(C)CCN(C)CCN(C)Cc2ccc(OC)cc2)cc1`, the survivor count is on record as 0 of 6 (dose: 200.0 mg/kg/injection, schedule: Q01DX009 (ip), vehicle: water) and 0 of 6 (dose: 400.0 mg/kg/injection, schedule: Q01DX009 (ip), vehicle: water).
Regarding `O=C(/C=C(\Cl)C(=O)NO)NO`, the survivor count is, setting by setting: (dose: 200.0 mg/kg/injection, schedule: Q01DX009 (ip), vehicle: acetone) 0 of 6; (dose: 400.0 mg/kg/injection, schedule: Q01DX009 (ip), vehicle: acetone) 0 of 6.
Take `O=C1C(=O)c2ccccc2C(O)=C1c1ccc(Br)cc1`: the survivor count is recorded as 1 of 4 under setting [5] and 0 of 4 under setting [6].
`CC1CC(O)C(=O)C(O[C@@H]2C[C@@H]3CC[C@@H]4[C@H](CC[C@]5(C)C(C6=CC(=O)OC6)CC[C@]45O)[C@@]3(C=O)C[C@H]2O)O1` (stereo partly drawn): the survivor count is, setting by setting: (dose: 100.0 mg/kg/injection, schedule: Q04DX003 (sc), vehicle: steroid suspending solution) 0 of 6; (dose: 200.0 mg/kg/injection, schedule: Q04DX003 (sc), vehicle: steroid suspending solution) 0 of 6; (dose: 400.0 mg/kg/injection, schedule: Q04DX003 (sc), vehicle: steroid suspending solution) 0 of 6.
On to `C1=COC(/C=N/Nc2nnc(N/N=C/C3CCC=CO3)c3ccccc23)CC1` (stereo not drawn), for which the survivor count reads like this: (dose: 50.0 mg/kg/injection, schedule: Q01DX001 (ip), vehicle: saline) 0 of 4; (dose: 80.0 mg/kg/injection, schedule: Q01DX001 (ip), vehicle: saline) 1 of 4; (dose: 100.0 mg/kg/injection, schedule: Q01DX001 (ip), vehicle: saline) 0 of 4; (dose: 200.0 mg/kg/injection, schedule: Q01DX001 (ip), vehicle: saline) 0 of 4; under setting [4], 0 of 4.
As to `S=C([S-])N1CCOCC1.S=C([S-])N1CCOCC1.[Zn]`, the survivor count is on record as 2 of 6 (dose: 75.0 mg/kg/injection, schedule: Q04DX003 (ip), vehicle: saline); 0 of 6 (dose: 150.0 mg/kg/injection, schedule: Q01DX001 (ip), vehicle: saline); 0 of 6 (dose: 300.0 mg/kg/injection, schedule: Q01DX001 (ip), vehicle: saline).
